## Assay results

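Over two days of treatment, Rh30 pediatric muscle-tumor cells were checked for survival using a luminescent ATP-based viability readout. Compounds ran as dilution series reaching 46 µM at the top, from about 0.78 nM for the 11-point MIPE set. The number is the fitted AC50 potency for loss of cell viability; a lower value means a more potent cytotoxic effect. Calls come from curve class and an activity score: actives score 40 to 100, inconclusives 1 to 39 (weak, partial, poorly fitted or top-dose-only curves), and inactives score 0.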

Values are in nM. All entries here are filed as inconclusive. These entries are mostly ones the record files as inconclusive; other results of the assay are not listed here. A potency from a partial, single-point or poor curve is only a rough figure. Some entries filed as inconclusive have a full curve. Activity scores are not listed here. An entry listed twice with the same setting is a separate test.

SMILES | fitted potency (nM) | curve as filed
CS(=O)(=O)CCNCc1ccc(-c2ccc3ncnc(Nc4ccc(OCc5cccc(F)c5)c(Cl)c4)c3c2)o1 | 20930 | cytotoxic, partial curve
CCCCCCCCOc1ccccc1C(=O)Nc1ccc(C(=O)OCC[N+](C)(CC)CC)cc1 | 20930 | cytotoxic, partial curve
CC(C)Cn1cnc2c(N)nc3ccccc3c21 | 5899 | cytotoxic, full curve
CC(C)(C)c1nc(-c2cccc(NS(=O)(=O)c3c(F)cccc3F)c2F)c(-c2ccnc(N)n2)s1 | 11770 | cytotoxic, partial curve
COc1ccc(/C=C/C(=O)c2ccc(OC)cc2OC)cc1 | 16788 | cytotoxic, single point
CCNC(=O)Nc1ccc2ncc(Nc3ccc(C)cc3)nc2n1 | 5258 | cytotoxic, partial curve
O=c1c(O)c(-c2ccc(O)cc2)oc2cc(O)cc(O)c12 | 16626 | cytotoxic, partial curve
Nc1ncnc2c1ncn2[C@@H]1O[C@H](CO)C[C@@H]1O | 16626 | cytotoxic, partial curve, poor fit
Cc1ccc(/C=N/NC(=O)c2ccccc2Oc2ccccc2)o1 | 16626 | cytotoxic, partial curve
Oc1cc(O)cc(C=Cc2ccc(O)c(O)c2)c1 | 6619 | cytotoxic, partial curve
CC[C@@H]([C@H](C)O)n1ncn(-c2ccc(N3CCN(c4ccc(OCC5CO[C@@](Cn6cncn6)(c6ccc(F)cc6F)C5)cc4)CC3)cc2)c1=O (stereo partly shown) | 14817 | cytotoxic, partial curve
Cc1ccc(-n2[nH]c(C)c(N=Nc3cccc(-c4cccc(C(=O)O)c4)c3O)c2=O)cc1C | 18654 | cytotoxic, partial curve
COc1ccc(-n2c(C)c([N+](=O)[O-])c3ccc(O)cc32)cc1 | 29565 | cytotoxic, single point
O=C1c2c(O)ccc(O)c2C(=O)c2c(NCCNCCO)ccc(NCCNCCO)c21 | 10593 | cytotoxic, partial curve
N#Cc1ccc(C(c2ccc(C#N)cc2)n2cncn2)cc1 | 13206 | cytotoxic, partial curve, poor fit
CCOC(=O)N[C@@H]1CC[C@@H]2[C@@H](C1)C[C@H]1C(=O)O[C@H](C)[C@H]1[C@@H]2C=Cc1ccc(-c2cccc(F)c2)cn1 | 11770 | cytotoxic, partial curve, poor fit
COc1cc2nc(N3CCCN(C)CC3)nc(NC3CCN(Cc4ccccc4)CC3)c2cc1OC | 29565 | cytotoxic, single point
COc1ccc(-c2oc3c(CC=C(C)C)c(OC4O[C@H](CO)[C@@H](O)[C@H](O)[C@@H]4O)cc(O)c3c(=O)c2OC2O[C@@H](C)[C@H](O)[C@@H](O)[C@@H]2O)cc1 (stereo partly shown) | 18654 | cytotoxic, partial curve, poor fit
CCCCCNC(=O)N1CCC(CN(Cc2ccc(Cl)cc2)Cc2ccc([N+](=O)[O-])s2)C1 (stereo not shown) | 11770 | cytotoxic, partial curve
S=P(N1CC1)(N1CC1)N1CC1 | 5258 | cytotoxic, partial curve
N#CC(c1ccnc(NCCc2cccnc2)n1)c1nc2ccccc2s1 (stereo not shown) | 18654 | cytotoxic, partial curve, poor fit
CN(C)CCC=C1c2ccccc2COc2ccc(CC(=O)O)cc21 | 33173 | cytotoxic, partial curve, poor fit
COc1ccc(C(=O)CC(=O)c2ccc(C(C)(C)C)cc2)cc1 | 1321 | cytotoxic, full curve
CC(CCc1ccc(O)cc1)NCCc1ccc(O)c(O)c1 (stereo not shown) | 6619 | cytotoxic, partial curve, poor fit
Cn1cc(-c2ccc3nnc(C(F)(F)c4ccc5ncccc5c4)n3n2)cn1 | 10490 | cytotoxic, partial curve, poor fit
Oc1ccc(-c2nc(-c3ccc(F)cc3)c(-c3ccncc3)[nH]2)cc1 | 9350 | cytotoxic, partial curve
CNc1nc(Nc2ccc(C(=O)N3CCOCC3)cc2OC)ncc1Cl | 6619 | cytotoxic, partial curve, poor fit
CCN(CC)CCCCNc1ncc2c(n1)N(C)C(=O)N(c1c(Cl)c(OC)cc(OC)c1Cl)C2 | 18654 | cytotoxic, partial curve
CNC1CCC(N(Cc2cccc(-c3ccncc3)c2)C(=O)c2sc3c(F)ccc(F)c3c2Cl)CC1 (stereo not shown) | 20930 | cytotoxic, partial curve
CCCC(C(=O)OCCN(CC)CC)(c1ccccc1)c1ccccc1 | 29855 | cytotoxic, partial curve, poor fit
CC(C)NC[C@@H](C(=O)N1CCN(c2ncnc3c2[C@H](C)C[C@H]3O)CC1)c1ccc(Cl)cc1 | 4686 | cytotoxic, partial curve
CNC(=O)c1ccc(C)c(-n2c(C)cc(OCc3ccc(F)cc3F)c(Br)c2=O)c1 | 16626 | cytotoxic, partial curve
CNC(=O)c1cc(COc2nnc(Nc3ccc(Cl)cc3)c3ccoc23)ccn1 | 20930 | cytotoxic, partial curve
Cn1cc(-c2ccc3nnc(Sc4ccc5ncccc5c4)n3n2)cn1 | 18654 | cytotoxic, partial curve
COc1cc(Nc2ncc3c(n2)-c2ccc(Cl)cc2C(c2c(F)cccc2OC)=NC3)ccc1C(=O)O | 11770 | cytotoxic, partial curve
O=C1c2c(O)ccc(O)c2C(=O)c2c(NCCNCCO)ccc(NCCNCCO)c21 | 5899 | cytotoxic, partial curve
CCCS(=O)c1ccc2nc(NC(=O)OC)[nH]c2c1 (stereo not shown) | 14817 | cytotoxic, partial curve, poor fit
COc1cc2ncnc(-n3nc(-c4ccccn4)nc3N)c2cc1OC | 10490 | cytotoxic, partial curve
CS(=O)(=O)c1ccc(-c2cn3ccccc3n2)cc1 | 11885 | cytotoxic, partial curve, poor fit
COc1ccc(-c2c(-c3ccc(O)cc3O)n[nH]c2C)cc1 | 38196 | cytotoxic, partial curve
CCOC(=O)N1CCC(=C2c3ccc(Cl)cc3CCc3cccnc32)CC1 | 33498 | cytotoxic, single point
CNC(=O)c1cc(Oc2ccc(NC(=O)Nc3ccc(Cl)c(C(F)(F)F)c3)c(F)c2)ccn1 | 5899 | cytotoxic, partial curve
CN(C)c1ccc(O)c2c1C[C@H]1C[C@H]3[C@H](N(C)C)C(=O)C(C(N)=O)=C(O)[C@@]3(O)C(=O)C1=C2O | 9350 | cytotoxic, partial curve
Cc1ccc2nc(NCCN)c3ncc(C)n3c2c1 | 23484 | cytotoxic, single point
Cc1ccc(N(CC2=NCCN2)c2cccc(O)c2)cc1 | 16626 | cytotoxic, partial curve, poor fit
COc1nccc(-c2c(-c3ccc(F)cc3)ncn2C2CCC(O)CC2)n1 (stereo not shown) | 2635 | cytotoxic, partial curve, poor fit
O=C(C=Cc1cccnc1)NCCCCC1CCN(C(=O)c2ccccc2)CC1 | 23.5 | cytotoxic, full curve, poor fit
CC[C@@]1(O)C(=O)OCc2c1cc1n(c2=O)Cc2cc3cc(O)ccc3nc2-1 | 589.9 | cytotoxic, full curve
C[C@@H](O[C@H]1OCCN(Cc2n[nH]c(=O)[nH]2)[C@@H]1c1ccc(F)cc1)c1cc(C(F)(F)F)cc(C(F)(F)F)c1 | 16626 | cytotoxic, partial curve
Cn1cnc2c(F)c(Nc3ccc(Br)cc3Cl)c(C(=O)NOCCO)cc21 | 5899 | cytotoxic, full curve
COc1ccc2c(Oc3ccc(NC(=O)c4c(C)n(CC(C)(C)O)n(-c5ccccc5)c4=O)cc3F)ccnc2c1 | 23484 | cytotoxic, single point
C=CC(=O)Nc1cccc(Sc2nc(Nc3ccc(N4CCN(C)CC4)cc3)ncc2Cl)c1 | 33173 | cytotoxic, single point
CC(=NNC(=S)N1CCC1)c1ccccn1 | 4176 | cytotoxic, partial curve
O=C1NC(=O)C(=Cc2ccc3nccnc3c2)S1 | 1287 | cytotoxic, partial curve
O=C(NCc1ccncc1)C12C[C@H]3C[C@@H](C1)CC(c1ccc(Cl)cc1)(C3)C2 | 20930 | cytotoxic, single point
C[C@]12Cc3cn[nH]c3C[C@@H]1CC[C@@H]1[C@H]2CC[C@@]2(C)[C@H]1CC[C@]2(C)O | 13206 | cytotoxic, partial curve, poor fit

3 of the entries, repeated:

* CNC(=O)c1cc(COc2nnc(Nc3ccc(Cl)cc3)c3ccoc23)ccn1 : fitted potency 20930 nM (cytotoxic, partial curve)
* CCNC(=O)Nc1ccc2ncc(Nc3ccc(C)cc3)nc2n1 : fitted potency 5258 nM (cytotoxic, partial curve)
* CCN(CC)CCCCNc1ncc2c(n1)N(C)C(=O)N(c1c(Cl)c(OC)cc(OC)c1Cl)C2 : fitted potency 18654 nM (cytotoxic, partial curve)

Data taken from PubChem BioAssay AID1347107, deposited by NCATS (2019).